In PubChem BioAssay AID485298 (National Center for Advancing Translational Sciences (NCATS), 2010):
About 740 (0.23%) of roughly 320,000 compounds were called active. This list was built around the results that the source calls inconclusive (neither active nor inactive); the mix of calls is not that of the screen. Calls follow the shape of the dose curve; as a rule, active = well fitted activation curve with a large enough effect; inconclusive = small, poorly fitted or top-dose-only effect; inactive = no such curve, though single readings can be large or run the other way. Potencies of inconclusive entries are doubtful fits and often do not repeat.

assay: qHTS Assay for Small Molecule Inhibitors of Mitochondrial Division or Activators of Mitochondrial Fusion; also: nearly all actives have a fitted effect of over 45% in size; conditions: S. cerevisiae fusion-defective mutant growth rescue, CellTiterGlo 48 h; series mostly up to 46.1 µM
How it was run: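 Read-out: ATP-based luminescence (CellTiterGlo, 10 min ambient) reporting growth of fusion-defective ts yeast after 48 hours at 37C on glycerol/ethanol YPEG medium in the presence of compound.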
Potency is read from the fitted curve at half-maximal effect.

Row | Structure (SMILES) | Potency
1 | CCOc1ccc2nc(NC(=O)C(CC)Sc3nc(C)cc(=O)[nH]3)sc2c1 (centres undefined) | inconclusive: 25.1 µM [activator, single point]
2 | CCCc1[nH]nc2c1C1(C(=O)N(CC)c3ccccc31)C(C#N)=C(N)O2 (centres undefined) | inactive
3 | CCCn1cnc2sc(CC)cc2c1=O | inconclusive: 11.2 µM [activator, partial curve]
4 | OC(COC(c1ccc(F)cc1)c1ccc(F)cc1)CN1CCCC1 (centres undefined) | inconclusive: 0.562 µM [activator, partial curve, poor fit]
5 | Cc1ccc(CNC(=O)CSc2nc(N3CCCCC3)nc(N3CCCCC3)n2)cc1 | inconclusive: 22.4 µM [activator, single point]
6 | O=c1c(O)c(-c2ccc(O)cc2O)oc2cc(O)cc(O)c12 | inconclusive: 18.4 µM [activator, partial curve]
7 | CCN(CC)c1ncnc2c1ncn2[C@@H]1O[C@H](COP(=O)(O)OP(=O)(O)C(Br)(Br)P(=O)(O)O)[C@@H](O)[C@H]1O | inactive
8 | CC1Cc2cc(S(=O)(=O)N3CCCC(C(=O)N4CCCCC4)C3)ccc2N1C(=O)C1CC1 (centres undefined) | active: 0.316 µM
9 | COc1ccc(Br)cc1CN(C)CC(=O)Nc1c(Cl)cccc1Cl | inconclusive: 17.8 µM [activator, partial curve]
10 | O=C(CN1CCC(n2nnc3cc(F)ccc32)CC1)Nc1ccc2c(c1)CCC2 | inconclusive: 14.1 µM [activator, single point]
11 | O=C(c1ccc(CS(=O)Cc2ccccc2Cl)o1)N1CCN(c2cccc(Cl)c2)CC1 (centres undefined) | active: 35.5 µM
12 | O=C(O)C/C(=C\c1ccc2c(c1)OCO2)c1nc2ccccc2s1 | inconclusive: 11.2 µM [activator, partial curve]
13 | O=c1c2ccccc2sn1-c1ccc(F)cc1 | inactive
14 | CC1CCN(c2ccc(NC(=O)c3ccc([N+](=O)[O-])o3)cc2)CC1 | inconclusive: 12.6 µM [activator, partial curve]
15 | Cc1ccc(-c2nn3c(C)nnc3s2)cc1NC(=O)c1ccc(-c2ccc(Cl)cc2Cl)o1 | inactive
16 | Cc1ccnc(NC(=O)c2sc3ccccc3c2Cl)c1 | inactive
17 | Cc1ccc(NC(=O)CSCC(=O)Nc2ccccc2N2CCCCC2)cc1 | inconclusive: 22.4 µM [activator, single point]
18 | CN(C)C1(CNC(=O)c2cccc(S(=O)(=O)NCc3ccccc3)c2)CCCCC1 | inactive
19 | CC1CCN(c2nc3ccc(C(=O)N4CCN(Cc5ccc6c(c5)OCO6)CC4)cc3s2)CC1 | inconclusive: 17.8 µM [activator, single point]
20 | O=S(=O)(Nc1ccccc1)c1ccc(Oc2ncc(C(F)(F)F)cc2Cl)cc1 | inconclusive: 11.2 µM [activator, partial curve]
21 | CCOC(=O)Cn1nnnc1C(CC)N(Cc1cccs1)Cc1cc2ccc(OC)cc2[nH]c1=O (centres undefined) | inconclusive: 22.4 µM [activator, partial curve]
22 | Fc1ccc(C2CC(c3cccs3)=NN2C(=S)Nc2ccccc2)cc1 (centres undefined) | inconclusive: 8.91 µM [activator, partial curve]

Fetched by compound from the entries so far, two records:
Row | Structure (SMILES) | Potency
14 | CC1CCN(c2ccc(NC(=O)c3ccc([N+](=O)[O-])o3)cc2)CC1 | inconclusive: 12.6 µM [activator, partial curve]
11 | O=C(c1ccc(CS(=O)Cc2ccccc2Cl)o1)N1CCN(c2cccc(Cl)c2)CC1 (centres undefined) | active: 35.5 µM

Additional records:

Row | Structure (SMILES) | Potency
23 | COC(=O)c1nc(NC(=O)c2cc(OC)c(OC)c(OC)c2)n[nH]1 | inconclusive: 35.5 µM [activator, partial curve]
24 | O=C(NCCn1cc(SCc2ccccc2)c2ccccc21)c1ccccc1F | inconclusive: 22.4 µM [activator, single point]
25 | Cc1nc2ccc(NS(=O)(=O)c3ccc(Br)cc3)cc2s1 | inconclusive: 14.1 µM [activator, single point]
26 | CCN(CC)CC#CCOC(c1ccccc1)c1ccccc1 | inactive
27 | Cc1oc2ccc(OCc3ccccc3Cl)cc2c1C(=O)O | inconclusive: 7.94 µM [activator, partial curve]
28 | Cc1cc(C)c2nc(NC(=O)c3ccc(OCC4CCCO4)cc3)sc2c1 (centres undefined) | inconclusive: 35.5 µM [activator, single point]
29 | Cc1sc(NC(=S)NC(=O)c2ccco2)c(C(N)=O)c1C | inactive
30 | Cc1ccc(-c2cc3nc(-c4ccccc4)cc(N4CCC5(CC4)OCCO5)n3n2)cc1 | inconclusive: 10 µM [activator, partial curve]
31 | Cc1[nH]c2ccc(C(=O)OC(C)C(=O)N(C)C3CCCCC3)cc2c1C (centres undefined) | inconclusive: 14.1 µM [activator, single point]
32 | O=C(C1CCC1)N1CCN(c2ccc(C(F)(F)F)cc2[N+](=O)[O-])CC1 | inactive
33 | CCOC(=O)c1c(-c2ccc(OC)cc2)csc1NC(=O)CCN1CCOCC1 | inconclusive: 35.5 µM [activator, single point]
34 | CCOc1ccc(NC(C)C(=O)N/N=C/c2cccs2)cc1 (centres undefined) | inconclusive: 12.6 µM [activator, partial curve]
35 | CN(Cc1ccccc1)C(=O)CSc1cc(=O)n(C)c2ccccc12 | inconclusive: 20 µM [activator, single point]
36 | CCOC(=O)[C@H]1[C@H]2COc3ccc(Br)cc3[C@@H]2N2C(=O)c3ccc(F)cc3NC(=O)[C@@]12C | inconclusive: 11.2 µM [activator, partial curve]
37 | O=C(N1CCC(n2nc(-c3ccccc3)oc2=O)CC1)C1(c2ccc(Cl)cc2)CC1 | inconclusive: 31.6 µM [activator, single point]
38 | CCOC(=O)Cn1c(=O)oc2cc(S(=O)(=O)Nc3ccc(N(CC)CC)cc3C)ccc21 | inactive
39 | O=C(OCCCOC(=O)c1ccc(Br)o1)c1ccc(Br)o1 | inconclusive: 14.1 µM [activator, partial curve]
40 | Cc1cccc(-n2c(O)c(C=Nc3ccc(O)cc3)c3ccccc3c2=O)n1 | inactive
41 | CC(C)n1c(O)c(N=Nc2ccc(Cl)nn2)c2ccccc21 | inactive
42 | CC(=O)c1c(C)[nH]c(C(=O)Nc2cccc(S(=O)(=O)N(C)c3ccccc3)c2)c1C | inactive
43 | COc1ccccc1CNC(=O)C(C)n1cccc1C(=O)c1ccccc1 (centres undefined) | inconclusive: 7.08 µM [activator, full curve, poor fit]
44 | C(=N/Nc1nc(-c2ccccc2)cc(-c2ccccc2)n1)/c1cccnc1 | inconclusive: 31.6 µM [activator, single point]
